# Experimental data as given in the supplement of paper PMC12823440, “Inhibitors supercharge kinase turnover through native proteolytic circuits” (Nature, 2025).
# By UniProt entry, the sequences of proteins in these tests, tags left out. Where a name states a change or a piece, a line headed by the entry shows the natural chain unless it says otherwise.
# UniProt Q15208: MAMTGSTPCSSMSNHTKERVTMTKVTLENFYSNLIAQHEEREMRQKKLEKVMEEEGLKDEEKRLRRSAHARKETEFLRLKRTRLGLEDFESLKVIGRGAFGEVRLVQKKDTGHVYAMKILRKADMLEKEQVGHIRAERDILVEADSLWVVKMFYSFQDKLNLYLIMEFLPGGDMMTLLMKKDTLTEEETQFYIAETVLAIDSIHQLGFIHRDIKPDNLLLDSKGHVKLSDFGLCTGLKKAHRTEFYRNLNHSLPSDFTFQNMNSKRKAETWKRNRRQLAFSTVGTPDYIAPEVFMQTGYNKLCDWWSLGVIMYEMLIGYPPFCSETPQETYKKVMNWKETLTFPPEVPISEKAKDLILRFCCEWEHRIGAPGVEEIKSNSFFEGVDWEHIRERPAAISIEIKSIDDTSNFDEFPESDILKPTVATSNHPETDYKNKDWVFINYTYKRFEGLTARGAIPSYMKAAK
# UniProt P42680: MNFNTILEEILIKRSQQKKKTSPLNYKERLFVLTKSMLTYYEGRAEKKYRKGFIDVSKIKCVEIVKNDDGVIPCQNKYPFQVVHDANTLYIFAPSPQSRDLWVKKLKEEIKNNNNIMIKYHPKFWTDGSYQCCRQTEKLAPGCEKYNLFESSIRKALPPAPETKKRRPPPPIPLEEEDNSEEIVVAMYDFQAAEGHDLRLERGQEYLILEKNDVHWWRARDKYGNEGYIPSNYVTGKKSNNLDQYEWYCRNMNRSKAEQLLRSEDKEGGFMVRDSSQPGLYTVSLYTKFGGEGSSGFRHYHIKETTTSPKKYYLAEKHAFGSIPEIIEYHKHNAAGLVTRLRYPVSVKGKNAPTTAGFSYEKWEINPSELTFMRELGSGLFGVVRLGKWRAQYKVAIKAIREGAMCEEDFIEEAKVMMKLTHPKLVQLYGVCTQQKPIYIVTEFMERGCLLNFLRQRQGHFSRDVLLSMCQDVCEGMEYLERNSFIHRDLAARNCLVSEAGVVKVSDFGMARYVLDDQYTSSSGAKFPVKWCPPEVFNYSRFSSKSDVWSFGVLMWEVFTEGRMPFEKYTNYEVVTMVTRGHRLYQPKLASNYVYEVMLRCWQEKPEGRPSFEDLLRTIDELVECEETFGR
# UniProt P29597: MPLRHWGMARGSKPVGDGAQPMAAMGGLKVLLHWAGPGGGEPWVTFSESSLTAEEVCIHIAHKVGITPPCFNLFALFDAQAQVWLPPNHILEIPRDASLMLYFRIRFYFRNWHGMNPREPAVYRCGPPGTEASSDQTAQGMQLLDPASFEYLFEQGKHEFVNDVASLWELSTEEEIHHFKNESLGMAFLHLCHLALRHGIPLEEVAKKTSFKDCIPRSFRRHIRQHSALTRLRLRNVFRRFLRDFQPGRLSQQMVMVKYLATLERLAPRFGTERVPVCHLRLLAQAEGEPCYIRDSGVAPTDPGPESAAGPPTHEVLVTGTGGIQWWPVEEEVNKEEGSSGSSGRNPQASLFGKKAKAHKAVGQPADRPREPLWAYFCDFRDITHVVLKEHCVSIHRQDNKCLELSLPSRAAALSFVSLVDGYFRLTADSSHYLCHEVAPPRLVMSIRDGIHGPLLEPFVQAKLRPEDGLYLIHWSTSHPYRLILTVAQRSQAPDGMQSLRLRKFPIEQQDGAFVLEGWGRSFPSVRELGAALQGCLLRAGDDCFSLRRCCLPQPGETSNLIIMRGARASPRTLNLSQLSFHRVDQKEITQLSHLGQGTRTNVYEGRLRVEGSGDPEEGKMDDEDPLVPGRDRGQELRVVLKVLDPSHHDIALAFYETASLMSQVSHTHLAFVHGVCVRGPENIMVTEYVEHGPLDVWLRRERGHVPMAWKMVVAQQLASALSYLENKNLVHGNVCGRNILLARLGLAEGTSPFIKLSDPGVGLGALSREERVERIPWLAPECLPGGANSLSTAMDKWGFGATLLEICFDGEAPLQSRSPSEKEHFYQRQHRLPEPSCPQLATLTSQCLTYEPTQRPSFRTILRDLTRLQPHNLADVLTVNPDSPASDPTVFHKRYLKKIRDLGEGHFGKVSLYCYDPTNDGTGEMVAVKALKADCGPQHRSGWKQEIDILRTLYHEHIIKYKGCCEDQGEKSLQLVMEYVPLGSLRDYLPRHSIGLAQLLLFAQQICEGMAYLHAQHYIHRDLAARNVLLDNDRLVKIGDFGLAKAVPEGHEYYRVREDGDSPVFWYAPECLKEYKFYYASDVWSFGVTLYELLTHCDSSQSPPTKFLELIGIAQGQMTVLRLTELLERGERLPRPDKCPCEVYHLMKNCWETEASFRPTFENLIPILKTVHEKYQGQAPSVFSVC
# UniProt Q6PHR2: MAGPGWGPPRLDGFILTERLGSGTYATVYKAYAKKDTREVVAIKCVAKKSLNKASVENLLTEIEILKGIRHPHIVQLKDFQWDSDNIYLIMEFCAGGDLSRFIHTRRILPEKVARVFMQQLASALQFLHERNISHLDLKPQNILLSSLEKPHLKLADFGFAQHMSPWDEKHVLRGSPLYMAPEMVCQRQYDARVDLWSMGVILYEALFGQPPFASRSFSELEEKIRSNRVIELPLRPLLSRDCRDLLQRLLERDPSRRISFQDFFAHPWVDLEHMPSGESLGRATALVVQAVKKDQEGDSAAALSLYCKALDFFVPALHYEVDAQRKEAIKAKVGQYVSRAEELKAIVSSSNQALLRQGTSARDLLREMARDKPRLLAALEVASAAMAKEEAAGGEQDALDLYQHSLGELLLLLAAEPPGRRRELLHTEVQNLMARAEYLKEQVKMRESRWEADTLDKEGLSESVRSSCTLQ
# UniProt P07947, whole entry, looked up: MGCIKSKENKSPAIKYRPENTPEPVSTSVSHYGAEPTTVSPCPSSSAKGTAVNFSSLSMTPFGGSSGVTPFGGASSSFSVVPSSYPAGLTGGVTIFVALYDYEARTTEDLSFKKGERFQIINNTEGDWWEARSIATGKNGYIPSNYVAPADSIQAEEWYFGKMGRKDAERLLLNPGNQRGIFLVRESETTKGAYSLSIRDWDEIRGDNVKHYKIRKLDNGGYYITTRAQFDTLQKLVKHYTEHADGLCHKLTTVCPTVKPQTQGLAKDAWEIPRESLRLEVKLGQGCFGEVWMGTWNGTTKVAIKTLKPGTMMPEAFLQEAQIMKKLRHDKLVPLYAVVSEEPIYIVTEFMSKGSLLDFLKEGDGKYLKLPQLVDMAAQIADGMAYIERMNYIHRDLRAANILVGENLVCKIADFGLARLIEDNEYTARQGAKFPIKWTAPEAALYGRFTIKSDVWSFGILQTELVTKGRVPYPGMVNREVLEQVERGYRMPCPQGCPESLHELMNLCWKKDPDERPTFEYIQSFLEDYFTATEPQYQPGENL
# UniProt P43403: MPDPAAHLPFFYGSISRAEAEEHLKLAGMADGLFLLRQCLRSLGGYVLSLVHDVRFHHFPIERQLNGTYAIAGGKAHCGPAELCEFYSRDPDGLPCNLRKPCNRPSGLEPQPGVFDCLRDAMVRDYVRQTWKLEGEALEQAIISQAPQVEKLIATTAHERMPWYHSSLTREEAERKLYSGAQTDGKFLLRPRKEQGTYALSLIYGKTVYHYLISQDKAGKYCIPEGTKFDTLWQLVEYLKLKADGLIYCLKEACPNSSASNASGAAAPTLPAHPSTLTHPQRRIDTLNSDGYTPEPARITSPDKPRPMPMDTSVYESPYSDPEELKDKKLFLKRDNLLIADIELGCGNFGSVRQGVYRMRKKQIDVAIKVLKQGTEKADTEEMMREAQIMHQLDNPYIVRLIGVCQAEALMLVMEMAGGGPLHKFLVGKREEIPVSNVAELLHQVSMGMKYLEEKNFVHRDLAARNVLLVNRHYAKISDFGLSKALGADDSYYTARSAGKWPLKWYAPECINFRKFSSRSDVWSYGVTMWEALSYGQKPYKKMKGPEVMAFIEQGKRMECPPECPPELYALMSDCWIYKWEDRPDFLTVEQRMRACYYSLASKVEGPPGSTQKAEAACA
# UniProt P00519, whole entry: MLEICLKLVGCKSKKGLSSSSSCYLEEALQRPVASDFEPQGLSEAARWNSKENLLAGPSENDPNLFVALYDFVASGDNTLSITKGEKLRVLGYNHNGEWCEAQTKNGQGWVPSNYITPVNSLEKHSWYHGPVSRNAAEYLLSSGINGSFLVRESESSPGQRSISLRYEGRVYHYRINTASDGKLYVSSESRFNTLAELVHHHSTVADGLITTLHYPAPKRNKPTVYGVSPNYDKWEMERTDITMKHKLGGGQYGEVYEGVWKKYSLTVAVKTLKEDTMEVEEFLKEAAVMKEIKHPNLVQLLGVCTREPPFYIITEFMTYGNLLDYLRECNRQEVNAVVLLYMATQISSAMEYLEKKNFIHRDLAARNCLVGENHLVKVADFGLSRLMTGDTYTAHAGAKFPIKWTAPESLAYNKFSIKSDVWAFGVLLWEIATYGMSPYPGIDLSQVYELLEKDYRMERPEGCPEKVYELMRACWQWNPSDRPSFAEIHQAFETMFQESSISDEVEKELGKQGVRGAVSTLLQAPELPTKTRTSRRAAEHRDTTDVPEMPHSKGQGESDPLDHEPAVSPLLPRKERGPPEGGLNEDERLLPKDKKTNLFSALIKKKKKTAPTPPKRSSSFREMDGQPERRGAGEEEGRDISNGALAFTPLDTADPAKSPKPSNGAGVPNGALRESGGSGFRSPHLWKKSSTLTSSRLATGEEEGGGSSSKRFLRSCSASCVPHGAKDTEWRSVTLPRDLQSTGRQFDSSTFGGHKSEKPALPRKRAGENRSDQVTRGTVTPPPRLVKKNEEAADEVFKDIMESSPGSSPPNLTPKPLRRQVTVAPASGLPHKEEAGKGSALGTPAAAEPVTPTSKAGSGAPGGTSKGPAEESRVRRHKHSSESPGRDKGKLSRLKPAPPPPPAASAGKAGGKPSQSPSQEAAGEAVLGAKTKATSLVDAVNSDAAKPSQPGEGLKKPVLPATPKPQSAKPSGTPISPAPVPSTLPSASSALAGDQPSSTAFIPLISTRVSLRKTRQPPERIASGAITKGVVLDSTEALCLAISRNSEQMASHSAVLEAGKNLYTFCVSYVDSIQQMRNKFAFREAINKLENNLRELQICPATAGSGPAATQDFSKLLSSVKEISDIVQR
# UniProt P31749: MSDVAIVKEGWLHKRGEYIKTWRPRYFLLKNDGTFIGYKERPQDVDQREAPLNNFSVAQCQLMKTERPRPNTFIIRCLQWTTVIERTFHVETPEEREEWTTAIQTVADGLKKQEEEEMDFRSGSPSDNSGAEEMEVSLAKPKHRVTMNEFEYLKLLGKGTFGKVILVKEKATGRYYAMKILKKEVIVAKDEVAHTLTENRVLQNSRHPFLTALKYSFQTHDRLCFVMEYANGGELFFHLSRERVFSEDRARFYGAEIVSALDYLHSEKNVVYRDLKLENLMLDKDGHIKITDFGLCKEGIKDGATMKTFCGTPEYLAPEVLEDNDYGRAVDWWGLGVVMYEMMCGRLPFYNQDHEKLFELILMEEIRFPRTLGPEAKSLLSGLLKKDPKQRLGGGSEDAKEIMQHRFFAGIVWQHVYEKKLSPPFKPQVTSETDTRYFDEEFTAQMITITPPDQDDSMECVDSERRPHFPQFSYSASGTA
# Structures can show the parent of a compound that is named as a salt. Some of the results follow. Hit calls seldom repeat between salt and free forms of one compound.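 Kinases were expressed as nanoluciferase fusions in K562 cells and luminescence was read every 4 h between 2 and 18 h as percent of control, DMSO set to 100% and a positive control to 0%. A time point counts as decreased when the signal drops significantly (2 sigma). The hit call is the authors' own, does not follow from the count of time points alone, and its rule is not shown.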
# What was measured:
# Conditions in all cases: K562; 2-18 h
# [1] = target: STK38 (UniProt Q15208); experiment: kinase-Nluc reporter destabilization hit call (1 = scored as downregulated) (binary); higher = compound decreases kinase abundance
# [2] = target: SYK (UniProt P43405); experiment: as above
# [3] = target: TEC (UniProt P42680); experiment: as above
# [4] = target: TYK2 (UniProt P29597); experiment: as above
# [5] = target: ULK3 (UniProt Q6PHR2); experiment: as above
# [6] = target: YES1 (UniProt P07947); experiment: as above
# [7] = target: ZAK (UniProt Q9NYL2); experiment: as above
# [8] = target: ZAP70 (UniProt P43403); experiment: as above
# [9] = target: ABL1 (UniProt P00519); experiment: number of time points (of 5) at which kinase-Nluc abundance scored as decreased, DMSO-normalised (count); higher = more persistent destabilization
# [10] = target: AKT1 (UniProt P31749); experiment: as above
Structure (SMILES),kinase-Nluc reporter destabilization hit call [1],kinase-Nluc reporter destabilization hit call [2],kinase-Nluc reporter destabilization hit call [3],kinase-Nluc reporter destabilization hit call [4],kinase-Nluc reporter destabilization hit call [5],kinase-Nluc reporter destabilization hit call [6],kinase-Nluc reporter destabilization hit call [7],kinase-Nluc reporter destabilization hit call [8],number of time points [9],number of time points [10]
Nc1ncnc2c1c(COc1cccc(Cl)c1)nn2C1CCOCC1 (10 µM),inactive: 0,inactive: 0,inactive: 0,inactive: 0,inactive: 0,inactive: 0,inactive: 0,inactive: 0,0,0
Cc1ccc(NC(=O)c2ccnc(C(F)(F)F)c2)cc1-c1cc(OCCO)nc(N2CCOCC2)c1 (10 µM),inactive: 0,inactive: 0,inactive: 0,inactive: 0,inactive: 0,inactive: 0,inactive: 0,inactive: 0,0,0
Cn1cc(C2=C(c3cn(CCCSC(=N)N)c4ccccc34)C(=O)NC2=O)c2ccccc21 [Ro 31-8220 (mesylate)] (2.5 µM),inactive: 0,inactive: 0,inactive: 0,inactive: 0,inactive: 0,inactive: 0,inactive: 0,inactive: 0,0,0
Cc1cnc(NC2CCOCC2)nc1-n1cnc(C(=O)N[C@H](CN)c2cc(F)cc(Cl)c2)c1 (10 µM),inactive: 0,inactive: 0,inactive: 0,inactive: 0,inactive: 0,inactive: 0,inactive: 0,inactive: 0,0,0
C[C@@H]1CCNC(=O)c2cc3ccc(C(=O)Nc4nc5ccccc5n4CCCN(C)C)cc3n21 (10 µM),inactive: 0,inactive: 0,inactive: 0,inactive: 0,inactive: 0,inactive: 0,inactive: 0,inactive: 0,0,0
CC(C)=CC(=O)O[C@H]1Cc2cc3ccc(=O)oc3cc2OC1(C)C [Decursin] (10 µM),inactive: 0,inactive: 0,inactive: 0,inactive: 0,inactive: 0,inactive: 0,inactive: 0,inactive: 0,0,0
C[C@H](Nc1ncnc2[nH]cnc12)c1cc2ccc(F)cc2nc1-c1ccccn1 (10 µM),inactive: 0,inactive: 0,inactive: 0,inactive: 0,inactive: 0,inactive: 0,inactive: 0,inactive: 0,0,0
CC(C)c1cc(/C=C(\C#N)C(=O)NCCCc2ccccc2)cc(C(C)C)c1O (10 µM),inactive: 0,inactive: 0,inactive: 0,inactive: 0,inactive: 0,inactive: 0,inactive: 0,inactive: 0,0,0
Nc1ncnc2c1c(-c1ccc(Oc3ccccc3)cc1)nn2C1CCN(CCOCCOCCOc2ccc3c(c2)CN(C2CCC(=O)NC2=O)C3=O)CC1 (stereo not given) (2.5 µM),inactive: 0,inactive: 0,active: 1,inactive: 0,inactive: 0,inactive: 0,inactive: 0,inactive: 0,0,0
CCN(CC)CCC(=O)N1N=C(c2c(-c3ccccc3)c3cc(Br)ccc3[nH]c2=O)CC1c1ccc(Br)cc1 (stereo not given) (2.5 µM),inactive: 0,inactive: 0,inactive: 0,inactive: 0,inactive: 0,inactive: 0,inactive: 0,inactive: 0,0,0
O=C(O)c1cc(=O)c2c(OCC(O)COc3cccc4oc(C(=O)O)cc(=O)c34)cccc2o1 [Cromolyn (sodium)] (10 µM),inactive: 0,inactive: 0,inactive: 0,inactive: 0,inactive: 0,inactive: 0,inactive: 0,inactive: 0,0,0
CNc1cc(Nc2cccn(-c3ccccn3)c2=O)nn2c(C(=O)N[C@@H]3C[C@@H]3F)cnc12 (2.5 µM),inactive: 0,inactive: 0,inactive: 0,inactive: 0,inactive: 0,inactive: 0,inactive: 0,inactive: 0,0,0
COc1ccc2cc3[n+](cc2c1OC)CCc1cc(O)c(O)cc1-3 [Demethyleneberberine] (10 µM),inactive: 0,inactive: 0,inactive: 0,inactive: 0,inactive: 0,inactive: 0,inactive: 0,inactive: 0,0,0
CN(C)CCC=C1c2ccccc2CCc2ccccc21 [Amitriptyline (hydrochloride)] (2.5 µM),inactive: 0,inactive: 0,inactive: 0,inactive: 0,inactive: 0,inactive: 0,inactive: 0,inactive: 0,0,0
Cc1ccn2c(C(=O)C(=O)c3ccccc3)c(-c3ccccc3)nc2c1 (10 µM),inactive: 0,inactive: 0,inactive: 0,inactive: 0,inactive: 0,inactive: 0,inactive: 0,inactive: 0,0,0
O=C(NCc1cccc(O)c1)Nc1nc(-c2ccncc2)cs1 (10 µM),inactive: 0,inactive: 0,inactive: 0,inactive: 0,inactive: 0,inactive: 0,inactive: 0,inactive: 0,0,0

Structure (SMILES),kinase-Nluc reporter destabilization hit call [1],kinase-Nluc reporter destabilization hit call [2],kinase-Nluc reporter destabilization hit call [3],kinase-Nluc reporter destabilization hit call [4],kinase-Nluc reporter destabilization hit call [5],kinase-Nluc reporter destabilization hit call [6],kinase-Nluc reporter destabilization hit call [7],kinase-Nluc reporter destabilization hit call [8],number of time points [9],number of time points [10]
COc1nn(C)cc1Nc1nccc(-c2c[nH]c3c(NC(=O)[C@@H](C)N4CCN(C)CC4)cccc23)n1 (10 µM),inactive: 0,inactive: 0,inactive: 0,inactive: 0,inactive: 0,inactive: 0,inactive: 0,inactive: 0,0,0
Cn1ncc2cc(-c3cnc(N)c(Cl)c3N3CCC4(CCNC4=O)CC3)ccc21 (10 µM),inactive: 0,inactive: 0,inactive: 0,inactive: 0,inactive: 0,inactive: 0,inactive: 0,inactive: 0,0,0
Oc1ccc(/C=C/c2cc(O)cc(O)c2)cc1 [Resveratrol] (10 µM),inactive: 0,inactive: 0,inactive: 0,inactive: 0,inactive: 0,inactive: 0,inactive: 0,inactive: 0,0,0
N#Cc1ccnc(Nc2cc(C3CCN(C4COC4)CC3)cc(N3CCC(F)(F)C3)n2)c1 (2.5 µM),inactive: 0,inactive: 0,inactive: 0,inactive: 0,inactive: 0,inactive: 0,inactive: 0,inactive: 0,0,0
C[C@@H]1CN(c2cc(-c3n[nH]c4ccc(OC5(C)CC5)cc34)ncn2)C[C@H](C)O1 (10 µM),inactive: 0,inactive: 0,inactive: 0,inactive: 0,inactive: 0,inactive: 0,inactive: 0,inactive: 0,0,0
CNc1nc(Nc2ccc(C(=O)N3CCOCC3)cc2OC)ncc1Cl (2.5 µM),inactive: 0,inactive: 0,inactive: 0,inactive: 0,inactive: 0,inactive: 0,inactive: 0,inactive: 0,0,0
CC(C)N1CCN(c2ccc(Nc3ncc4cc5n(c4n3)C3(CCCCC3)CNC5=O)nc2)CC1 [Lerociclib (dihydrochloride)] (2 µM),inactive: 0,inactive: 0,inactive: 0,inactive: 0,inactive: 0,inactive: 0,inactive: 0,inactive: 0,0,0
COc1cc(N2CCOCC2)ccc1NC(=O)c1csc(-c2cccnc2)n1 [IRAK inhibitor 6] (10 µM),inactive: 0,inactive: 0,inactive: 0,inactive: 0,inactive: 0,inactive: 0,inactive: 0,inactive: 0,0,0
NC(=O)N1CCC(CC(=O)N2CCC([C@H]3c4ncc(Br)cc4CCc4cc(Cl)cc(Br)c43)CC2)CC1 [Lonafarnib] (2.5 µM),inactive: 0,inactive: 0,inactive: 0,inactive: 0,inactive: 0,inactive: 0,inactive: 0,inactive: 0,0,0
COc1c(Nc2cc(C)[nH]n2)nc(Sc2ccc(S(=O)(=O)Cc3cccc([N+](=O)[O-])c3F)cc2F)nc1N1CCCCC1 [Centrinone-B] (2.5 µM),inactive: 0,inactive: 0,inactive: 0,inactive: 0,inactive: 0,inactive: 0,inactive: 0,inactive: 0,0,0
Nc1n[nH]c2nc(-c3ccc(NS(=O)(=O)c4cc(Cl)ccc4F)cc3)cnc12 (10 µM),inactive: 0,inactive: 0,inactive: 0,inactive: 0,inactive: 0,inactive: 0,inactive: 0,inactive: 0,0,0
CS(=O)(=O)c1ccc(-c2cnc(N)c(-c3ccc(C(F)(F)F)nc3)c2)cc1 (10 µM),inactive: 0,inactive: 0,inactive: 0,inactive: 0,inactive: 0,inactive: 0,inactive: 0,inactive: 0,0,0
FC(F)(F)c1ccc(/C=C/c2nc(COc3ccc(CCCCn4ccnn4)cc3)co2)cc1 [Mubritinib] (10 µM),inactive: 0,inactive: 0,inactive: 0,inactive: 0,inactive: 0,inactive: 0,inactive: 0,inactive: 0,0,0
CC1(C)Cc2c(sc(NC(=S)NC(=O)c3ccccc3)c2C(=O)O)CO1 (10 µM),inactive: 0,inactive: 0,inactive: 0,inactive: 0,inactive: 0,inactive: 0,inactive: 0,inactive: 0,0,0
Cc1ccc(NC(=O)c2ccc(CN(CCN(C)C)C(=O)c3cccnc3)cc2)cc1Nc1nccc(-c2cccnc2)n1 [PDGFRα kinase inhibitor 1] (10 µM),inactive: 0,inactive: 0,inactive: 0,inactive: 0,inactive: 0,inactive: 0,inactive: 0,inactive: 0,0,0

# Exported tab-delimited: part of the list above.
Structure (SMILES)	kinase-Nluc reporter destabilization hit call [1]	kinase-Nluc reporter destabilization hit call [2]	kinase-Nluc reporter destabilization hit call [3]	kinase-Nluc reporter destabilization hit call [4]	kinase-Nluc reporter destabilization hit call [5]	kinase-Nluc reporter destabilization hit call [6]	kinase-Nluc reporter destabilization hit call [7]	kinase-Nluc reporter destabilization hit call [8]	number of time points [9]	number of time points [10]
COc1cc(N2CCOCC2)ccc1NC(=O)c1csc(-c2cccnc2)n1 [IRAK inhibitor 6] (10 µM)	inactive: 0	inactive: 0	inactive: 0	inactive: 0	inactive: 0	inactive: 0	inactive: 0	inactive: 0	0	0
COc1c(Nc2cc(C)[nH]n2)nc(Sc2ccc(S(=O)(=O)Cc3cccc([N+](=O)[O-])c3F)cc2F)nc1N1CCCCC1 [Centrinone-B] (2.5 µM)	inactive: 0	inactive: 0	inactive: 0	inactive: 0	inactive: 0	inactive: 0	inactive: 0	inactive: 0	0	0
